# Source: PubChem BioAssay AID1671190 (National Center for Advancing Translational Sciences (NCATS), 2021)
# Sequences of proteins named here, by UniProt entry; tags and fusion partners are left off. A change or cut given only in a name is not applied to a line headed by its entry.
# UniProt P18054: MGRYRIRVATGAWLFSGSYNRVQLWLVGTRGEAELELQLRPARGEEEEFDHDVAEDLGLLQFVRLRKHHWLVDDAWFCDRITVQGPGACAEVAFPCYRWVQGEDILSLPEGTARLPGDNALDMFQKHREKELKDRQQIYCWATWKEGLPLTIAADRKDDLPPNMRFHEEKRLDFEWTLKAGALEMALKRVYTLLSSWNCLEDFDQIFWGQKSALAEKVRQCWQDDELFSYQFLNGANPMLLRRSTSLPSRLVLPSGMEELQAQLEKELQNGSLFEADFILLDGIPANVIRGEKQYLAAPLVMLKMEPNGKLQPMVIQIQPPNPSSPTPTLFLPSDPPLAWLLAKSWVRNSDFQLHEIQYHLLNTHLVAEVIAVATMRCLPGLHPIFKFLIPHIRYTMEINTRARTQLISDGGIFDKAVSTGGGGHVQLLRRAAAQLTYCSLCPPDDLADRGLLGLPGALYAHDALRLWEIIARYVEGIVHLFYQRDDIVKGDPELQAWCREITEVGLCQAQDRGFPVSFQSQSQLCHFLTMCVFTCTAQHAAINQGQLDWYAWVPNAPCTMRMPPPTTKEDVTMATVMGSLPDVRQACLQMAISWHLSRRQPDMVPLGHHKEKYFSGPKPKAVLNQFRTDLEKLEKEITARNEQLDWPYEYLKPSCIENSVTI
# In all, about 580,000 compounds went through this assay and about 6,100 (1.1%) were called active. The inconclusive results got no clear call from the source; some entries with a clear call stand among them for comparison. Calls come from the whole dose curve; as a rule, active = well fitted inhibition curve with a large enough effect; inconclusive = small, poorly fitted or top-dose-only effect, or another doubt; inactive = no such curve, though single readings can be large or run the other way. Potencies beside an inconclusive call are fits to weak or partial responses and may not hold up.
# Target: Polyunsaturated fatty acid lipoxygenase ALOX12 (Homo sapiens) (UniProt P18054)
# Assay: Primary qHTS assay for inhibitors of human arachidonate 12S-lipoxygenase (ALOX12): Round 2
# Details: purified 12hLO, xylenol orange hydroperoxide absorbance; activity change, negative = inhibition: at 108 µM (top of the series) unless noted
# In short: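 Hydroperoxide product was detected by ferrous iron/xylenol orange as the 573 to 405 nm absorbance ratio. Arachidonic acid at 40 uM (final) was turned over for 30 min at room temperature by 150 nM human 12hLO, pH 7.0 Hepes buffer, after 15 min compound preincubation.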
# % is set by controls: 0 for no effect and ±100 for the full control effect; potency is the fitted concentration of half-maximal effect.
SMILES,Potency,"activity change, negative = inhibition"
Cc1ccc(OCC(C)CN2CCC(C(O)(c3ccccc3)c3ccccc3)CC2)cc1 (stereo unspecified),"inconclusive: 70.8 µM [inhibitor, partial curve, poor fit]",
CCCC(=O)OCCNc1cc(Sc2nc3ccccc3[nH]2)c2nonc2c1[N+](=O)[O-],"inconclusive: 31.6 µM [inhibitor, partial curve]",
N/C(=N\OCc1ccc([N+](=O)[O-])cc1)c1ccncc1,"inconclusive: 20 µM [inhibitor, partial curve, poor fit]",
C/C(=N\NC(=O)c1cc(C2CC2)nc2ccccc12)c1ccc(C)s1,,inactive: 0%
CCS(=O)(=O)NCCNc1ccc([N+](=O)[O-])cc1,,inconclusive: -32.7% [inhibitor]
Cc1nc2cc(NC(=O)N3CCN(c4ccccn4)CC3)ccc2o1,,inactive: 3.63%
Cc1ccc(-c2c[n+]3c(n2-c2ccccc2)SCC3)cc1,,inactive: -0.0788%
COc1ccc(CCNC(=O)CSc2ccc(-c3ccccn3)nn2)cc1OC,,inactive: 3.31%
O=C(Nc1ccc(Cl)cc1)c1ccc2c(c1)n(Cc1ccccc1)c(=O)c1ccnn12,"inconclusive: 14.1 µM [inhibitor, full curve, poor fit]",
O=C(/C(=C/O)N=Nc1ccccc1)c1ccncc1,"inconclusive: 44.7 µM [inhibitor, partial curve, poor fit]",
COc1ccc(OC)c(-c2cc(C(=O)N3CCc4ccccc4C3)no2)c1,,inactive: -55.2%
Cc1ccccc1NC(=O)C1CCN(C(=O)N2CCOc3ccccc32)CC1,"inconclusive: 31.6 µM [inhibitor, single point]",
CCOc1cc(N2CCOCC2)c(OCC)cc1NC(=O)COC(=O)C1CCCN1S(=O)(=O)c1ccccc1F (stereo unspecified),"inconclusive: 15.8 µM [inhibitor, partial curve, poor fit]",
Cc1cc(-c2ccccc2)c2c(=O)[nH][nH]c2n1,"inconclusive: 28.2 µM [inhibitor, partial curve]",
Cc1ccc(N2CC(NC(=O)C(=O)c3c[nH]c4ccccc34)CC2=O)cc1 (stereo unspecified),"inconclusive: 63.1 µM [inhibitor, partial curve, poor fit]",
COc1ccc(NC(=O)Cn2nnc(C(=O)NCc3cccs3)c2N)c(OC)c1,,inactive: -14.8%
Cc1ccccc1NC(=S)N/N=C1\CC(C)(C)Oc2ccc(O)cc21,active: 39.8 µM,
CN(C)C(=O)N1CCn2nc(CNC(=O)c3cccc(-n4cnnc4)c3)cc2C1,,inactive: 90.2%
CN(C)/C=C1\NC(=S)N(c2ccc(Cl)cc2)C1=O,"inconclusive: 44.7 µM [inhibitor, partial curve, poor fit]",
COC(=O)Cn1c(CN2CCN(c3ccccc3)CC2)nc2c1c(=O)n(C)c(=O)n2C,,inactive: -58.3%
CN(C)C(=S)N=Nc1[nH]c2ccccc2c1O,,inactive: -21.9%
COc1ccc(CCNC(=O)c2cc3c(=O)n4ccccc4nc3n(CCCN3CCOCC3)c2=N)cc1,,inactive: -12%
CCn1c(SCC(=O)Nc2nccs2)nnc1-c1ccc(S(=O)(=O)N2CCCCCC2)cc1,,inactive: 0%

SMILES,Potency,"activity change, negative = inhibition"
COc1cccc([S+](=O)([O-])N2CC(N(C)c3ccccc3C)C2)c1,"inconclusive: 112 µM [inhibitor, partial curve, poor fit]",
CC1CCc2ccccc2N1C(=O)c1cccs1 (stereo unspecified),,inactive: 1.87%
Cc1cccn2c(=O)c3cc(C(=O)N(Cc4ccccc4)C(C)C)sc3nc12,,inactive: -6.74%
COc1cccc(C2=CC(=O)CCC2)c1OC,"inconclusive: 4.47 µM [inhibitor, full curve, poor fit]",
Cc1cccc(C(=O)Nc2nc(-c3nnn(-c4cc(F)ccc4F)c3C)ns2)c1,"inconclusive: 89.1 µM [inhibitor, partial curve, poor fit]",
O=C(NC[C@H]1COCc2nc3cc(F)ccc3n21)c1ccc(Cl)cc1,,inactive: -3.76% [at 176 µM]
O=C(CSc1n[nH]c(=O)[nH]c1=O)N1CCCCCC1,,inactive: 2.06%
O=C(c1n[nH]c2c1CCCC2)N1CCC2(CC1)NC(=O)N(c1ccc(F)cc1)N2,active: 1.41 µM,
Cc1nc(NC(=S)NC(=O)c2ccccc2)sc1C(=O)N(C)C,"inconclusive: 10 µM [inhibitor, full curve, poor fit]",
Cc1cccc(C(=O)Nc2nnc(SCC(=O)Nc3ccc4c(c3)oc3ccccc34)s2)c1,"inconclusive: 56.2 µM [inhibitor, partial curve, poor fit]",
Cc1cc(N2CCN(S(=O)(=O)c3ccc(Cl)c(Cl)c3)CC2)nc(C(C)C)n1,,inactive: -53.8%
O=C(c1cc2nc(-c3ccc(Cl)cc3)cc(C(F)(F)F)n2n1)N1CCOCC1,,inactive: -11%
COc1ccc(C(C(=O)NC(C)(C)C)N(C(=O)CCC(=O)Nc2cc(C)on2)c2ccc3c(c2)OCCO3)cc1 (stereo unspecified),"inconclusive: 100 µM [inhibitor, partial curve, poor fit]",
OC1CCN(Cc2ccc3ccccc3c2)CC1,"inconclusive: 1 µM [inhibitor, full curve, poor fit]",
CC1CCN(S(=O)(=O)c2ccc3c(c2)N(CC(=O)O)C(=O)CO3)CC1,,inactive: -13.3%
CC(C)(C)C(=O)NC(=C(Cl)Cl)P(=O)(O)O,"inconclusive: 44.7 µM [inhibitor, partial curve]",
CCCn1nc(C(=O)Nc2ccc(Cl)cc2)c2ccccc2c1=O,"inconclusive: 39.8 µM [inhibitor, partial curve, poor fit]",
Cc1ccc(C(=O)c2coc3ccc(O)cc23)cc1,"inconclusive: 2.82 µM [inhibitor, full curve, poor fit]",
Cn1cc([C@@H](NC(=O)c2nc3ccccc3[nH]c2=O)C2CC(O)C2)cn1 (stereo partly specified),,inactive: -4.13%
Cc1cccc(NC(=S)NNC(=O)c2ccc(-c3ccccc3)cc2)c1,"inconclusive: 39.8 µM [inhibitor, partial curve, poor fit]",
CC(C)N(C(=O)CSc1nc2ccccc2n1-c1ccccc1)C(C)C,"inconclusive: 63.1 µM [inhibitor, partial curve, poor fit]",
COc1ccc2nc3oc(C(=O)N4CCN(c5cccc(Cl)c5)CC4)cc3cc2c1,,inactive: 21.2%
O=C(c1cc(C2CC2)nc2ccccc12)N1N=C(C(F)F)CC1(O)C(F)F (stereo unspecified),,inactive: -14.8%

# Taken from the results shown for reference:
SMILES,Potency,"activity change, negative = inhibition"
COc1cccc([S+](=O)([O-])N2CC(N(C)c3ccccc3C)C2)c1,"inconclusive: 112 µM [inhibitor, partial curve, poor fit]",
CC1CCc2ccccc2N1C(=O)c1cccs1 (stereo unspecified),,inactive: 1.87%
